Test results as given in patent US20260146991A1, “COMPOSITION AND METHODS OF AGING-RELATED AGENT SCREENING AND TARGET ANALYSIS” (Centre for Translational Stem Cell Biology Limited, priority 2022, published 2026).
Entries after “also recorded” stand apart in the source; their conditions may differ. For at least one compound, name, drawing or mass did not settle the structure.

What was measured:
[1] = tested on: TSCs differentiating towards STBs; assay: RT-qPCR of aging-related marker genes during TSC-STB differentiation; format: cell-based, human; conditions: for CGA expression: FIG. 4H
Experimental: (§1) To generate the hTSC cell lines, the single cell suspension of hEPSCs were plated on a 6-well plate (1-2×10^3/well) pre-coated with 10 mg/mL Geltrex™ LDEV-Free Reduced Growth Factor Basement Membrane Matrix or Matrigel and cultured in human trophoblast stem cell medium (hTSCM) for 7-10 days. Then single colonies of the differentiated cells on the 6-well plate were picked and expanded. The expanded cell lines were validated with trophoblast markers and RNA-Seq analysis. The established TSC cell lines were maintained in the hTSCM medium and passaged at ratio 1:4-1:5 every 3-5 days. The hTSCM was DMEM/F12 based medium supported with: 110 μM β-mercaptoethanol, 0.2% FBS, 0.5% Penicillin-Streptomycin-Glutamine, 0.3% BSA, 1×ITS-X supplement, 50.0 μg/mL Vc, 50.0 ng/ml EGF, 2.0 μM CHIR99021, 0.5 μM A83-01, 1.0 μM SB431542, 0.8 μM VPA, and 5.0 μM Y27632. Established TSC cells were seeded at 1.0×10^5-2×10^5 cells per well in a six-well plate pre-coated with 10 mg/mL Geltrex™ LDEV-Free Reduced Growth Factor Basement Membrane Matrix or Matrigel, and were induced to differentiate into STBs after culturing in syncytiotrophoblasts medium (STBM) for around 6 days. The STBM comprises: DMEM/F12 supplemented with 110 μM β-mercaptoethanol, 0.5% Penicillin-Streptomycin, 0.3% BSA, 1×ITS-X, 2.5 μM Y27632, 2 μM Forskolin, and 4% KnockOut Serum Replacement. The cells became early syncytiotrophoblasts on day 2-3, and mature syncytiotrophoblasts around day 6.
RT-qPCR: Total RNA was extracted using RNeasy Mini Kit (Qiagen) per manufacturer specification. Extracted RNA was then reverse transcribed to cDNA using Fastking gDNA diselling RT SuperMix (Tiangen). Gene expression was measured using PowerUp™ SYBR™ Green Master Mix (Applied Biosystems) and StepOnePlus™ Real-Time PCR (Applied Biosystems) with the primers listed in Table E1A. Raw gene expression data was normalized to GAPDH by using the ΔCt method. Statistical analysis was carried out using either one/two-tailed student's t-test in Prism 8 (GraphPad).
First, a known anti-aging drug Rapamycin was tested. TSCs in good growing state were seeded at 1.0×10^4-2×10^4 cells per well in a 24-well plate pre-coated with 10 mg/mL Geltrex™ LDEV-Free Reduced Growth Factor Basement Membrane Matrix or Matrigel. After 24 hours, 3 wells continued in TSCM; 3 wells switched to STBM+DMSO; 3 wells switched to STBM+Rapamycin (500 nM). The media was changed every 2-3 days. On day 6, β-hCG was measured by ELISA as described in Example 1. Expression of aging-related marker genes (e.g., CGA and CGB3) was measured by RT-qPCR as described in Example 1.

model organisms = conditions: yeast, worms, flies, male mice; background; cited from earlier work
[2] = tested on: TSCs differentiating towards STBs; assay: ELISA of secreted β-hCG during TSC-STB differentiation; format: cell-based, human
Experimental: as §1, with “The STBM comprises: DMEM/F12 supplemented with 110 μM β-mercaptoethanol, 0.5% Penicillin-Streptomycin, 0.3% BSA, 1×ITS-X, 2.5 μM Y27632, 2 μM Forskolin, and 4% KnockOut Serum Replacement. The cells became early syncytiotrophoblasts on day 2-3, and mature syncytiotrophoblasts around day 6.” left out
(§2) First, a known anti-aging drug Rapamycin was tested. […] On day 6, β-hCG was measured by ELISA as described in Example 1. Expression of aging-related marker genes (e.g., CGA and CGB3) was measured by RT-qPCR as described in Example 1.

[3] = tested on: TSCs differentiating towards STBs; assay: Cell morphology, viability and proliferation during TSC-STB differentiation; format: cell-based, human; conditions: treated cells during TSC-STB differentiation; FIG. 4E
Experimental: To generate the hTSC cell lines, the single cell suspension of hEPSCs were plated on a 6-well plate (1-2×10^3/well) pre-coated with 10 mg/mL Geltrex™ LDEV-Free Reduced Growth Factor Basement Membrane Matrix or Matrigel and cultured in human trophoblast stem cell medium (hTSCM) for 7-10 days. Then single colonies of the differentiated cells on the 6-well plate were picked and expanded. The expanded cell lines were validated with trophoblast markers and RNA-Seq analysis. The established TSC cell lines were maintained in the hTSCM medium and passaged at ratio 1:4-1:5 every 3-5 days. […]
Same number of TSCs in robust growing state were seeded in STBM with/without a candidate agent in a black Polystyrene TC-treated 96-well Microplate pre-coated with 10 mg/ml Geltrex™ LDEV-Free Reduced Growth Factor Basement Membrane Matrix or Matrigel (1.5×10^4-2×10^4 cells per well). […] Cell morphology was monitored daily under a microscope. The signal readouts of reporter molecules was assessed on day 2, day 4, and day 6. On day 6, cells in each well were fixed and stained with DAPI or Hoechst, and cell count and intensity (both reporter and nuclei) were assessed using high content microscopy to assess the agent's effects and cell viability. […]
First, a known anti-aging drug Rapamycin was tested. […] On day 6, β-hCG was measured by ELISA as described in Example 1. […]

[4] = tested on: TSCs differentiating towards STBs; assay: Western blot of β-hCG during TSC-STB differentiation; format: cell-based, human; conditions: at certain / different concentrations; FIG. 4I
Experimental: Western blot: The proteins were extracted with RIPA lysis (thermofisher, Cat. 89901) and Pierce Protease Inhibitor Mini Tablets (thermofisher, Cat. A32953). Protein concentrations were measured with Pierce™ BCA Protein Assay Kits (thermofisher, Cat. 23227). Then samples with certain amount of NuPAGE™ LDS Sample Buffer (4×) (thermofisher, Cat. NP0008) were boiled at 70 degree for 10 min. Boiled samples were loaded with the same amount and separated in 12% polyacrylamide gels (Thermofisher Cat. NP0343BOX) and transferred to PVDF membranes using the Bio-Rad transblot turbo system according to the manufacturer's guidance. Images were developed by the ChemiDoc Imaging System and processed with ImageJ 1.47v. […]

TSC-STB differentiation = assay: TSC-STB system, overall evaluation of anti-aging effect; format: cell-based, human
Experimental: Same number of TSCs in robust growing state were seeded in STBM with/without a candidate agent in a black Polystyrene TC-treated 96-well Microplate pre-coated with 10 mg/ml Geltrex™ LDEV-Free Reduced Growth Factor Basement Membrane Matrix or Matrigel (1.5×10^4-2×10^4 cells per well). On each screening microplate, 3 wells of control (cells only with 0.5% DMSO in 100 μL STB growth medium) and 3 wells of positive control (some well-known anti-ageing agents in certain concentration) were included. The cells were cultured at 37° C. and 5% CO2 with saturating humidity and differentiated into mature STB in the medium for 6 days. Cell morphology was monitored daily under a microscope. The signal readouts of reporter molecules was assessed on day 2, day 4, and day 6. On day 6, cells in each well were fixed and stained with DAPI or Hoechst, and cell count and intensity (both reporter and nuclei) were assessed using high content microscopy to assess the agent's effects and cell viability. The agents, especially those that affect cell viability will also be tested at different concentrations and at different day during the STB differentiation process.
as §2

[5] = Rapamycin 500 nM, day 6, compared to STBM+DMSO, FIG. 4C
[6] = Rapamycin 500 nM, day 6, compared to STBM+DMSO, FIG. 4D

C[C@H]1O[C@H](O[C@H]2[C@H](O)[C@@H](O)[C@@H](O[C@H]3[C@H](O)[C@@H](O)C(O)O[C@@H]3CO)O[C@@H]2CO)[C@H](O)[C@@H](O)[C@@H]1N[C@H]1C=C(CO)[C@@H](O)[C@H](O)[C@H]1O (stereo partly shown) [Acarbose]
CGA expression ([1]; 1 μM): reduced
CGA expression ([1]; 10 μM): increasing

Cc1ccc(-c2cc(C(F)(F)F)nn2-c2ccc(S(N)(=O)=O)cc2)cc1 [celecoxib]
lifespan in some model organisms (model organisms): extend lifespan

CO[C@H]1C[C@@H]2CC[C@@H](C)[C@@](O)(O2)C(=O)C(=O)N2CCCC[C@H]2C(=O)O[C@H]([C@H](C)C[C@@H]2CC[C@@H](O)[C@H](OC)C2)CC(=O)[C@H](C)/C=C(\C)[C@@H](O)[C@@H](OC)C(=O)[C@H](C)C[C@H](C)/C=C/C=C/C=C/1C [Rapamycin]
β-hCG (ELISA) ([2]; Rapamycin 500 nM, day 6, compared to STBM+DMSO, FIG. 4B): significantly lower; also recorded: reduced
secreted β-hCG level (ELISA) ([2]; compared to the DMSO control group, FIG. 4F): significantly lower
CGA expression (RT-qPCR) [1, 5]: significantly lower
CGB3 expression (RT-qPCR) [1, 5]: significantly lower
CDKN1A expression (RT-qPCR) [1, 6]: significantly lower
IL6 expression (RT-qPCR) [1, 6]: significantly lower
morphology: appearance of multinucleated STB cells [3]: delayed appearance of multinucleated STB cells
β-hCG expression (Western blot) [4]: significantly reduce; also recorded: reduced
STB features (TSC-STB differentiation; Rapamycin 500 nM): decreased
anti-aging effect in the TSC-STB system (TSC-STB differentiation; summary statement): slowed maturation and aging
